# According to US5338830A, “Biologically active peptide derived from chicken (chicken CNP)” (Suntory Limited, priority 1990, dated 1994):
# At least one peptide structure holds a part that was inferred or is arguable (an end, a ring closure or a residue). Where a SMILES comes first, the peptide text is derived from it. Bridges are numbered along the chain shown (N, C = ends).
# Test system: chicken rectum
# Conditions: relaxant activity of equimolar amount of peptides, activity of hANP = 100; averages of six repeats
# Protocol: Relaxant activity in chicken rectum was measured in accordance with the method of […] and Currie ([…]. and Matsuo, H., Biochem. Biophys. Res. Commun., 118, 131-139, 1984; Currie, […]., Cole, […]. and Needleman, P. Science, 221, 71-73, 1983). The values are averages of six repeats. […] Although cCNP lacked the tail sequence at the C-terminal which had been considered to be important for analog peptides in displaying biological activities such as diuretic action (Watanabe, T. X., Noda, Y., Chino […]. and Imai, M. Eur. J.
compound,measurement,value
"CC[C@H](C)[C@@H]1NC(=O)[C@H](CCCNC(=N)N)NC(=O)[C@H](CC(=O)O)NC(=O)[C@H]([C@@H](C)CC)NC(=O)[C@H](CCCNC(=N)N)NC(=O)[C@H](CO)NC(=O)CNC(=O)[C@H](Cc2ccccc2)NC(=O)[C@@H](NC(=O)[C@H](CC(=O)O)NC(=O)[C@H](CO)NC(=O)[C@@H](N)CO)CSSC[C@@H](C(=O)NCC(=O)N[C@@H](CCCNC(=N)N)C(=O)N[C@@H](CCCNC(=N)N)C(=O)N[C@@H](Cc2ccccc2)C(=O)O)NC(=O)CNC(=O)[C@H](CCSC)NC(=O)CNC(=O)[C@H](CO)NC(=O)[C@H](CCC(N)=O)NC(=O)[C@H](C)NC(=O)CNC1=O [fANP-24, reference compound] (H-SSDCFGSRIDRIGAQSGMGCGRRF-OH; disulfide 4-20)",relative activity,3.7
